Experimental data as given in publication doi:10.1101/2021.04.21.440798 (bioRxiv, 2021).
These are yes or no findings as the source states them, for the method shown. Binding seen in cells or lysates may run through a third protein. Some entries that bind do so weakly or less than the wild type.

Sequences of proteins named here, by UniProt entry; tags and fusion partners are left off.
UniProt Q86VP1: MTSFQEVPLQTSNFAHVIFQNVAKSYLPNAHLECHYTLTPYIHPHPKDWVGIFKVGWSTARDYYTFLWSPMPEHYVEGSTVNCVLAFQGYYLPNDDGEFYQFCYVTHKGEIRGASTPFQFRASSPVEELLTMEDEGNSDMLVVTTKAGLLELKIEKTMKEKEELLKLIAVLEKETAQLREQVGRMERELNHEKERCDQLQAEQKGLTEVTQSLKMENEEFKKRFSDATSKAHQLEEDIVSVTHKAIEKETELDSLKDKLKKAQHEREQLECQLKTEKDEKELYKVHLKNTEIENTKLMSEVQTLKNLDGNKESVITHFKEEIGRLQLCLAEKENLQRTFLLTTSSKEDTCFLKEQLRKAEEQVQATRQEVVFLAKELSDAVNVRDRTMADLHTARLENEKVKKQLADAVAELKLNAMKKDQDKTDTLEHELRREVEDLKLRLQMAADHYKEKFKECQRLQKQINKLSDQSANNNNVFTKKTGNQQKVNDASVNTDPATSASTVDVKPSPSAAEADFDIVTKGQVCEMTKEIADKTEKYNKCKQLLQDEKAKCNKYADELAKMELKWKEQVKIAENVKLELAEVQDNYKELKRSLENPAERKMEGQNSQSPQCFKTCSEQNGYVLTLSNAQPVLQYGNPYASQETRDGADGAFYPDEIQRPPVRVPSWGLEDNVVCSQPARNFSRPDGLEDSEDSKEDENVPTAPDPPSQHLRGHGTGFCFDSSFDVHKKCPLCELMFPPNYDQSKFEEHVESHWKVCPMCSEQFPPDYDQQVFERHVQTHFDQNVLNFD

Legend:
[1] = biological target: TAX1-Binding Protein-1 (TAX1BP1/T6BP), endogenous (human (endogenous in HeLa-CIITA, DG75 and KG-1)) (UniProt Q86VP1); assay: co-IP
[2] = biological target: TAX1-Binding Protein-1 (TAX1BP1/T6BP), endogenous (human (endogenous in HeLa-CIITA, DG75 and KG-1)) (UniProt Q86VP1); assay: co-IP; remark: listed apart in the source
[3] = biological target: TAX1-Binding Protein-1 (TAX1BP1/T6BP), endogenous (human (endogenous in HeLa-CIITA, DG75 and KG-1)) (UniProt Q86VP1); assay: proximity ligation
[4] = biological target: TAX1-Binding Protein-1 (TAX1BP1/T6BP), endogenous (human (endogenous in HeLa-CIITA, DG75 and KG-1)) (UniProt Q86VP1); assay: co-IP; remark: listed apart in the source

- binding [1]: binds
- binding [2]: binds
- binding [3]: binds
- binding [4]: binds
B1: Calnexin (CANX), endogenous (natural protein)
chain: HDGHDDDVIDIEDDLDDVIEEVEDSKPDTTAPPSSPKVTYKAPVPTGEVYFADSFDRGTLSGWILSKAKKDDTDDEIAKYDGKWEVEEMKESKLPGDKGLVLMSRAKHHAISAKLNKPFLFDTKPLIVQYEVNFQNGIECGGAYVKLLSKTPELNLDQFHDKTPYTIMFGPDKCGEDYKLHFIFRHKNPKTGIYEEKHAKRPDADLKTYFTDKKTHLYTLILNPDNSFEILVDQSVVNSGNLLNDMTPPVNPSREIEDPEDRKPEDWDERPKIPDPEAVKPDDWDEDAPAKIPDEEATKPEGWLDDEPEYVPDPDAEKPEDWDEDMDGEWEAPQIANPRCESAPGCGVWQRPVIDNPNYKGKWKPPMIDNPSYQGIWKPRKIPNPDFFEDLEPFRMTPFSAIGLELWSMTSDIFFDNFIICADRRIVDDWANDGWGLKKAADGAAEPGVVGQMIEAAEERPWLWVVYILTVALPVFLVILFCCSGKKQTSGMEYKKTDAPQPDVKEEEEEKEEEKDKGDEEEEGEEKLEEKQKSDAEEDGGTVSQEEEDRKPKAEEDEILNRSPRNRKPRRE
